Laboratory results: patent US4217271A, “Basic azo dyestuffs containing a n-picolinium alkylene amino phenyl group” (Imperial Chemical Industries Limited, priority 1977, dated 1980)

What was measured:
[1] = Shade on Polyacrylonitrile; conditions: chloride anion
[2] = Dyeing of Orlon: shade and fastness

SMILES	Shade on Polyacrylonitrile [1]	shade on Orlon [2]
CCN(CC[n+]1ccc(C)cc1)c1ccc(N=Nc2ccc([N+](=O)[O-])cc2C#N)c(C)c1 [Example 3]	Bordeaux	–
CCN(CC[n+]1ccc(C)cc1)c1ccc(N=Nc2c(Cl)cc(S(=O)(=O)N(C)C)cc2Cl)cc1 [Example 9]	Reddish-yellow	–
CCN(CC[n+]1ccc(C)cc1)c1ccc(N=Nc2cc(Cl)ccc2C#N)cc1 [Example 4]	Orange	–
CCN(CC[n+]1ccc(C)cc1)c1ccc(N=Nc2nc(-c3ccccc3)ns2)cc1 [Example 10]	Red	–
CCN(CC[n+]1ccc(C)cc1)c1ccc(N=Nc2ncc([N+](=O)[O-])s2)c(C)c1 [Example 7]	Reddish-blue	–
CCN(CC[n+]1ccc(C)cc1)c1ccc(N=Nc2nc(-c3ccccc3)ns2)c(C)c1 [Example 11]	Red	–
CCN(CC[n+]1ccc(C)cc1)c1ccc(N=Nc2cc(Cl)c(S(=O)(=O)N(C)C)cc2Cl)cc1 [Example 8]	Orange	–
CCN(CC[n+]1ccc(C)cc1)c1ccc(N=Nc2c(Br)cc([N+](=O)[O-])cc2[N+](=O)[O-])cc1 [Example 12]	Violet	–
CCN(CC[n+]1ccc(C)cc1)c1ccc(N=Nc2snc3ccc([N+](=O)[O-])cc23)c(C)c1 [Example 5]	Reddish-blue	–
CCN(CC[n+]1ccc(C)cc1)c1ccc(N=Nc2ccc([N+](=O)[O-])cc2C#N)cc1 [Example 2]	Rubine	–
CCN(CC[n+]1ccc(C)cc1)c1ccc(N=Nc2ncc([N+](=O)[O-])s2)cc1 [Example 6]	Violet	–
CCN(CC[n+]1ccc(C)cc1)c1ccc(N=Nc2ccc([N+](=O)[O-])cc2Cl)cc1 [Example 1, 4-nitro-2-chloroaniline N-2-(N'-ethylanilino)-ethyl-4-methylpyridinium chloride]	–	yellowish-red
CCN(CC[n+]1cccc(C)c1)c1ccc(N=Nc2ccc([N+](=O)[O-])cc2Cl)cc1 [Example 13]	Red	–
